# Reference: the supplement of paper PMC8728848
# The list shows a part of the results.
# B1: PX9961KLbvu-535-38-535 (Bacteroides vulgatus) (protein)
# chain: DKAYTDAESYTKGLHKIYSVWALSGQDGSSSSDISGLDAGNTALLRCWWTLQEQPTDEMKNAWNDAWCTEVNYMTWTTNKVEPIEGVYQRCMYIVALVNEFLKNIPNAPESIDKESYIAQARFNRAFAYYVLMDMFALPPFITEKNYSIEPAPLSREDLFNWIEAELNEIKPNLPSPRSEYGVADQAVASALLARMYLNAEIYTGKARYTECINACNEVIKAGYQLADNYADLFKADNGENPDTKKEIIYPIIFDGDKTQSWGMAAIIIGARGAEDKDVLLAHSGVDQGWAGFRATSNLVHLFDFQNDEEPKASEIQDKRGIFYDKGRSIDITSSVSGTFETEGWSVFKFSNLNSNGQPGKNTLWVDTDFPMFRLGDIYLMYAEAVARGGEGSKASAVEYINALRKRAYGDDKHNISENWLEENNFRNLLDERGRELYWEGIRRTDLVRFDLLTSGSYTWDFKGGINTGVGVNKRYNVYPIPVTDLTVNGNLQQNEGY
# Experiments:
# Test in all cases: glycan array binding signal (z-score within array); higher = stronger binding
# Settings in all cases: glycan notation: IUPAC condensed, linker removed
# [1] = biological target: GlcNAc(b1-4)GlcNAc(b1-4)GlcNAc(b1-4)GlcNAc(b1-4)GlcNAc(b1-4)GlcNAc
# How it was run: (§1)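 The binding signal is a Z-score computed within each array. Data were drawn from 3228 arrays in the Consortium for Functional Glycomics database, restricted to those with a known protein sequence. Scores were averaged over arrays of the same protein sequence at different concentrations or buffers, and over linkers, and negative values can be taken as non-binding.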
# [2] = biological target: GlcNAc(b1-4)[GlcNAc(b1-6)]GalNAc
# How it was run: as §1
# [3] = biological target: GlcNAc(b1-6)Gal(b1-4)GlcNAc
# How it was run: as §1
# [4] = biological target: GlcNAc(b1-6)GalNAc
# How it was run: as §1
# [5] = biological target: GlcNAc6S(b1-3)Gal(b1-4)GlcNAc
# How it was run: as §1
# [6] = biological target: Kdn(a2-3)Gal(b1-3)GalNAc
# How it was run: as §1
# [7] = biological target: Kdn(a2-3)Gal(b1-3)GlcNAc
# How it was run: as §1
# [8] = biological target: Kdn(a2-3)Gal(b1-4)Glc
# How it was run: as §1
# [9] = biological target: Kdn(a2-3)Gal(b1-4)GlcNAc
# How it was run: as §1
# [10] = biological target: Kdn(a2-3)Gal(b1-4)[Fuc(a1-3)]GlcNAc
# How it was run: as §1
# [11] = biological target: Kdn(a2-6)Gal(b1-4)GlcNAc
# How it was run: as §1
# [12] = biological target: Man(a1-2)Man(a1-2)Man(a1-3)Man
# How it was run: as §1
# [13] = biological target: Man(a1-2)Man(a1-2)Man(a1-6)[Man(a1-3)]Man
# How it was run: as §1
# [14] = biological target: Man(a1-2)Man(a1-3)Man
# How it was run: as §1
# [15] = biological target: Man(a1-2)Man(a1-3)[Man(a1-2)Man(a1-6)]Man
# How it was run: as §1
# [16] = biological target: Man(a1-2)Man(a1-3)[Man(a1-2)Man(a1-6)]Man(a1-6)[Man(a1-2)Man(a1-2)Man(a1-3)]Man
# How it was run: as §1
# [17] = biological target: Man(a1-2)Man(a1-3)[Man(a1-2)Man(a1-6)]Man(a1-6)[Man(a1-2)Man(a1-2)Man(a1-3)]Man(b1-4)GlcNAc(b1-4)GlcNAc
# How it was run: as §1
# [18] = biological target: Man(a1-2)Man(a1-3)[Man(a1-6)]Man(a1-6)[Man(a1-2)Man(a1-3)]Man(b1-4)GlcNAc(b1-4)GlcNAc
# How it was run: as §1
# [19] = biological target: Man(a1-2)Man(a1-6)[Man(a1-3)]Man(a1-6)[Man(a1-2)Man(a1-2)Man(a1-3)]Man
# How it was run: as §1
# [20] = biological target: Man(a1-2)Man(a1-6)[Man(a1-3)]Man(a1-6)[Man(a1-2)Man(a1-2)Man(a1-3)]Man(b1-4)GlcNAc(b1-4)GlcNAc
# How it was run: as §1
# [21] = biological target: Man(a1-3)[Man(a1-6)]Man
# How it was run: as §1
# [22] = biological target: Man(a1-3)[Man(a1-6)]Man(a1-6)[Man(a1-2)Man(a1-3)]Man(b1-4)GlcNAc(b1-4)GlcNAc
# How it was run: as §1
# [23] = biological target: Man(a1-3)[Man(a1-6)]Man(a1-6)[Man(a1-3)]Man
# How it was run: as §1
# [24] = biological target: Man(a1-3)[Man(a1-6)]Man(a1-6)[Man(a1-3)]Man(b1-4)GlcNAc(b1-4)GlcNAc
# How it was run: as §1
# [25] = biological target: Man(a1-3)[Man(a1-6)]Man(b1-4)GlcNAc(b1-4)GlcNAc
# How it was run: as §1
# [26] = biological target: Man(a1-3)[Man(a1-6)]Man(b1-4)GlcNAc(b1-4)[Fuc(a1-6)]GlcNAc
# How it was run: as §1
# [27] = biological target: Man(a1-6)Man
# How it was run: as §1
# [28] = biological target: Man(b1-4)GlcNAc
# How it was run: as §1
# [29] = biological target: MurNAc(b1-4)GlcNAc
# How it was run: as §1
# [30] = biological target: Neu5Ac(a2-3)Gal
# How it was run: as §1
# [31] = biological target: Neu5Ac(a2-3)Gal(b1-3)GalNAc
# How it was run: as §1
# [32] = biological target: Neu5Ac(a2-3)Gal(b1-3)GalNAc(b1-3)Gal(a1-4)Gal(b1-4)Glc
# How it was run: as §1
# [33] = biological target: Neu5Ac(a2-3)Gal(b1-3)GalNAc(b1-4)[Neu5Ac(a2-3)]Gal(b1-4)Glc
# How it was run: as §1
# [34] = biological target: Neu5Ac(a2-3)Gal(b1-3)GalNAc(b1-4)[Neu5Ac(a2-8)Neu5Ac(a2-3)]Gal(b1-4)Glc
# How it was run: as §1
# [35] = biological target: Neu5Ac(a2-3)Gal(b1-3)GalNAc6S
# How it was run: as §1
# [36] = biological target: Neu5Ac(a2-3)Gal(b1-3)GlcNAc
# How it was run: as §1
# [37] = biological target: Neu5Ac(a2-3)Gal(b1-3)GlcNAc(b1-2)Man
# How it was run: as §1
# [38] = biological target: Neu5Ac(a2-3)Gal(b1-3)GlcNAc(b1-2)Man(a1-3)[GlcNAc(b1-4)][Neu5Ac(a2-3)Gal(b1-3)GlcNAc(b1-2)Man(a1-6)]Man(b1-4)GlcNAc(b1-4)GlcNAc
# How it was run: as §1
# [39] = biological target: Neu5Ac(a2-3)Gal(b1-3)GlcNAc(b1-2)Man(a1-3)[Neu5Ac(a2-3)Gal(b1-3)GlcNAc(b1-2)Man(a1-6)]Man(b1-4)GlcNAc(b1-4)GlcNAc
# How it was run: as §1
# [40] = biological target: Neu5Ac(a2-3)Gal(b1-3)GlcNAc(b1-3)Gal(b1-3)GlcNAc
# How it was run: as §1
# [41] = biological target: Neu5Ac(a2-3)Gal(b1-3)GlcNAc(b1-3)Gal(b1-4)GlcNAc
# How it was run: as §1
# [42] = biological target: Neu5Ac(a2-3)Gal(b1-3)GlcNAc(b1-3)GalNAc
# How it was run: as §1
# [43] = biological target: Neu5Ac(a2-3)Gal(b1-3)GlcNAc(b1-4)Gal(b1-4)Glc
# How it was run: as §1
# [44] = biological target: Neu5Ac(a2-3)Gal(b1-3)GlcNAc(b1-6)GalNAc
# How it was run: as §1
# [45] = biological target: Neu5Ac(a2-3)Gal(b1-3)GlcNAc6S
# How it was run: as §1
binder,measurement,setting,value
B1,glycan array binding signal (z-score),[1],-0.624
same,glycan array binding signal (z-score),[2],-0.54
same,glycan array binding signal (z-score),[3],0.017
same,glycan array binding signal (z-score),[4],-0.148
same,glycan array binding signal (z-score),[5],-0.704
same,glycan array binding signal (z-score),[6],0.667
same,glycan array binding signal (z-score),[7],-0.028
same,glycan array binding signal (z-score),[8],0.295
same,glycan array binding signal (z-score),[9],-1.14
same,glycan array binding signal (z-score),[10],-0.266
same,glycan array binding signal (z-score),[11],-0.71
same,glycan array binding signal (z-score),[12],0.041
same,glycan array binding signal (z-score),[13],-0.833
same,glycan array binding signal (z-score),[14],-0.203
same,glycan array binding signal (z-score),[15],-0.059
same,glycan array binding signal (z-score),[16],-0.364
same,glycan array binding signal (z-score),[17],0.029
same,glycan array binding signal (z-score),[18],-0.892
same,glycan array binding signal (z-score),[19],0.499
same,glycan array binding signal (z-score),[20],-0.583
same,glycan array binding signal (z-score),[21],-0.077
same,glycan array binding signal (z-score),[22],0.357
same,glycan array binding signal (z-score),[23],0.956
same,glycan array binding signal (z-score),[24],0.158
same,glycan array binding signal (z-score),[25],-0.054
same,glycan array binding signal (z-score),[26],-0.389
same,glycan array binding signal (z-score),[27],-0.102
same,glycan array binding signal (z-score),[28],0.646
same,glycan array binding signal (z-score),[29],0.495
same,glycan array binding signal (z-score),[30],-0.055
same,glycan array binding signal (z-score),[31],-0.336
same,glycan array binding signal (z-score),[32],0.885
same,glycan array binding signal (z-score),[33],-0.037
same,glycan array binding signal (z-score),[34],0.204
same,glycan array binding signal (z-score),[35],0.146
same,glycan array binding signal (z-score),[36],-0.099
same,glycan array binding signal (z-score),[37],-0.376
same,glycan array binding signal (z-score),[38],-0.83
same,glycan array binding signal (z-score),[39],-0.083
same,glycan array binding signal (z-score),[40],-0.677
same,glycan array binding signal (z-score),[41],0.054
same,glycan array binding signal (z-score),[42],-0.512
same,glycan array binding signal (z-score),[43],-0.755
same,glycan array binding signal (z-score),[44],0.328
same,glycan array binding signal (z-score),[45],-0.604

# 3 records drawn at random from the list so far:
binder,measurement,setting,value
B1,glycan array binding signal (z-score),[18],-0.892
same,glycan array binding signal (z-score),[19],0.499
same,glycan array binding signal (z-score),[26],-0.389
